Assay results: publication PMC6391071, “Mechanisms of opening and closing of the bacterial replicative helicase” (eLife, 2018)
These are yes or no findings as the source states them, for the method shown. For some assays here: Binding seen in cells or lysates may run through a third protein. Some entries that bind do so weakly or less than the wild type.

The chains behind the UniProt entries cited, without tags or fusion partners.
UniProt P0ACB0: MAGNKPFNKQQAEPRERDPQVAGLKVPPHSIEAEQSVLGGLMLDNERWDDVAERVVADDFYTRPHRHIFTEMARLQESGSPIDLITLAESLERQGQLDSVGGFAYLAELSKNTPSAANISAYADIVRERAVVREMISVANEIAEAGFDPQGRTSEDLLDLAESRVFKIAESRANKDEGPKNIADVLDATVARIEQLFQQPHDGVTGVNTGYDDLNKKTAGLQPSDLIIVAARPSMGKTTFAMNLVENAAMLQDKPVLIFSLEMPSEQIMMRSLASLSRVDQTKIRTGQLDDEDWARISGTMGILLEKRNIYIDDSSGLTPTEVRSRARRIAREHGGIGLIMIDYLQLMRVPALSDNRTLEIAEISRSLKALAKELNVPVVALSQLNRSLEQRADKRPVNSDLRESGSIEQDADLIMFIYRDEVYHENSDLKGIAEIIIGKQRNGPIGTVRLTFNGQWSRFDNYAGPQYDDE

B1: bacteriophage λP helicase loader (natural protein, UniProt P03689 1-233, looked up)
chain: MKNIAAQMVNFDREQMRRIANNMPEQYDEKPQVQQVAQIINGVFSQLLATFPASLANRDQNEVNEIRRQWVLAFRENGITTMEQVNAGMRVARRQNRPFLPSPGQFVAWCREEASVTAGLPNVSELVDMVYEYCRKRGLYPDAESYPWKSNAHYWLVTNLYQNMRANALTDAELRRKAADELVHMTARINRGEAIPEPVKQLPVMGGRPLNRAQALAKIAEIKAKFGLKGASV
notes: bacteriophage λ replication protein P (helicase loader), full length, 233 residues, 26,518 Da, untagged; Five copies stand in the predominant complex with the DnaB hexamer; The 6BBM model of λP has no side chains and covers about residues 109-233; also called lambdaP; LP; source: E. coli BL21(DE3), co-expressed with DnaB (pCDFDuet-λP); purified as the BP complex (ammonium sulfate, Q-sepharose, …)

Key:
[1] = molecular target: λPΔ102 (truncated λP, residues 103-233), hexahistidine-tagged (bacteriophage λ) (UniProt P03689); assay: pull-down; Ni-NTA beads; co-expressed untagged DnaB and His-tagged λPΔ102 loaded in 10 mM imidazole, washed three times with 20 mM imidazole, eluted with 250 mM imidazole; SDS-PAGE
[2] = molecular target: Escherichia coli DnaB helicase (Escherichia coli) (UniProt P0ACB0); assay: cross-linking; DSS cross-linking with mass spectrometry (CX-MS); EcDnaB-λP with Oriλ-derived ssDNA (0.2 mg/ml, protein to DNA 1:1.2), 2 mM DSS overnight at 4°C; the gel region of 170-460 kDa digested with trypsin; both purified

Molecule	binding [1]	binding [2]
Escherichia coli DnaB helicase (from UniProt P0ACB0 1-471) (enzyme)	binds	–
B1	–	binds
